Measured values from the supplement of paper PMC12067093, “Discovery and optimisation of a covalent ligand for TRIM25 and its application to targeted protein ubiquitination” (Chemical Science, 2025).
Some of the results follow.

The chains behind the UniProt entries cited, without tags or fusion partners. Where a name states a change or a piece, a line headed by the entry shows the natural chain unless it says otherwise.
UniProt P05165: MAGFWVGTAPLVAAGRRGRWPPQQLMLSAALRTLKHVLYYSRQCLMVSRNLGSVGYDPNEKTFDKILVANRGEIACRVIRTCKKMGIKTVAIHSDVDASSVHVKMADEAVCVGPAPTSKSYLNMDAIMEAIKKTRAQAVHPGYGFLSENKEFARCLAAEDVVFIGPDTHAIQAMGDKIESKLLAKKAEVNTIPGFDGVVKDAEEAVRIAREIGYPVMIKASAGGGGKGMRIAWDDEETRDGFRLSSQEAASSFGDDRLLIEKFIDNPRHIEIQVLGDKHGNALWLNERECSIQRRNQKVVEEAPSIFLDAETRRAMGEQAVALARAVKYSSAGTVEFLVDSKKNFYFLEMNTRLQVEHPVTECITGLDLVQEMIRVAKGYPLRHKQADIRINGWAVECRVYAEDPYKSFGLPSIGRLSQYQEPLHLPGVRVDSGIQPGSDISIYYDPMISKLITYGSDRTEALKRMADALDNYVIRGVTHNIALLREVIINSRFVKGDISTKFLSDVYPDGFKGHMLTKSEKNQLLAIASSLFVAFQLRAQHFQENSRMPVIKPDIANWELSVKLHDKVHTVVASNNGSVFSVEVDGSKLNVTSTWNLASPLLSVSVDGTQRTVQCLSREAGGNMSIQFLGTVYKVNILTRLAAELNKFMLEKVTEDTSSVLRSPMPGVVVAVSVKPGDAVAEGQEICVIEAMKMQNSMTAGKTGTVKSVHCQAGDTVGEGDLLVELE
UniProt Q15154: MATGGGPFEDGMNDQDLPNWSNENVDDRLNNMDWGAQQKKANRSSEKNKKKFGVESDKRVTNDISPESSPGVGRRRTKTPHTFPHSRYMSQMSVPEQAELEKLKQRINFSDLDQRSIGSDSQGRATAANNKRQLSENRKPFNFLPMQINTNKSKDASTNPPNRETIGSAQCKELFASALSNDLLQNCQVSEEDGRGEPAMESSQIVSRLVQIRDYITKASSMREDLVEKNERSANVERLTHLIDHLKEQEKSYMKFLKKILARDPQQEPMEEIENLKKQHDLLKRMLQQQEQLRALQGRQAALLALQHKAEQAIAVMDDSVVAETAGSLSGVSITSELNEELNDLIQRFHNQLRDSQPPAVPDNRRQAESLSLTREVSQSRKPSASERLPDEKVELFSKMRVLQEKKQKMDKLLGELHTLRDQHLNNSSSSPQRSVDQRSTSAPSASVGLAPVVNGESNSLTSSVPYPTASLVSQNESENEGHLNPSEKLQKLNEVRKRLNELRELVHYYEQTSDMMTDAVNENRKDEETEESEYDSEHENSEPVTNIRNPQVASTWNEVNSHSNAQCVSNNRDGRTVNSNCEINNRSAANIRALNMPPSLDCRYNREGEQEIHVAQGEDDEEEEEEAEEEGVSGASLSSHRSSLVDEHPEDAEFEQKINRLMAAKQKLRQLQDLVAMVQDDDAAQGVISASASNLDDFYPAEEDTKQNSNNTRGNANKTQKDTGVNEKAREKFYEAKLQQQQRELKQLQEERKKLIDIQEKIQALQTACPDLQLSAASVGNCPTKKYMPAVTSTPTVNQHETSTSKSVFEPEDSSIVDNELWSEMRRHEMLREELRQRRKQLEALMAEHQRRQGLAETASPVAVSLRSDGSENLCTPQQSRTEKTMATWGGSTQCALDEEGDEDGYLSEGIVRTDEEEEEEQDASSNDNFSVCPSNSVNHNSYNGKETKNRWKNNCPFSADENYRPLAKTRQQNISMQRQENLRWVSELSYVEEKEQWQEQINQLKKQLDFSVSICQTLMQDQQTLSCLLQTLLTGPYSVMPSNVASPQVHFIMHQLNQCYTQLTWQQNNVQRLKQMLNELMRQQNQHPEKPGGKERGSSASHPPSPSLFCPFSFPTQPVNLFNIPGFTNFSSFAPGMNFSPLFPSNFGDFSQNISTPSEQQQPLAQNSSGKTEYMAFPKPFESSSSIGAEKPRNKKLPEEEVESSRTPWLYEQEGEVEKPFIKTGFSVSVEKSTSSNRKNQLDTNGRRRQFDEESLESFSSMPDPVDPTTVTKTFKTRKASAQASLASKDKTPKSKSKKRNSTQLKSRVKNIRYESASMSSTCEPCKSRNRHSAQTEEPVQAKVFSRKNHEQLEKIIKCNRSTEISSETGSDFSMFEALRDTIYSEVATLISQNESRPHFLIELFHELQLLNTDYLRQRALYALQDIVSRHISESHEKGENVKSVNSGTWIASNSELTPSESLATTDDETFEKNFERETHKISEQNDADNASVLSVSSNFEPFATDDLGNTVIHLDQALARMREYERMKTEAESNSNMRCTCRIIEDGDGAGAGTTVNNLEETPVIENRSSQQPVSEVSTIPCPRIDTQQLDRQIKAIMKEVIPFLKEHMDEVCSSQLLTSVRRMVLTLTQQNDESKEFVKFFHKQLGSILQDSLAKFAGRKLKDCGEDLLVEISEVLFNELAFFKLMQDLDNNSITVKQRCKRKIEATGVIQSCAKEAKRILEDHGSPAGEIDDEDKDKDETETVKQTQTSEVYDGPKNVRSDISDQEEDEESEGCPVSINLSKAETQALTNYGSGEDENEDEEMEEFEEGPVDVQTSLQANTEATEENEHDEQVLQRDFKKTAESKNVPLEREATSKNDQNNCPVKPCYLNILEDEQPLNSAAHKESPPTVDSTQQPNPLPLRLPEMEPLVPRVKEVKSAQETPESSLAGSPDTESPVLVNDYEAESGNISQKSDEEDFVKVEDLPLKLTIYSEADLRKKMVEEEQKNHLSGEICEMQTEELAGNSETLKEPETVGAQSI
UniProt Q9BUH6, whole entry, looked up: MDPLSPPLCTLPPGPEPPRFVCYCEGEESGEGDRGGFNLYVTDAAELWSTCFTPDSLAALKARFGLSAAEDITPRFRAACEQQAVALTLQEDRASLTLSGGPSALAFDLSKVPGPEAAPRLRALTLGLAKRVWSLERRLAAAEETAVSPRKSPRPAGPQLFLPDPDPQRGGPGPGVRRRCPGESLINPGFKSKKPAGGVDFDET
UniProt Q86SE9: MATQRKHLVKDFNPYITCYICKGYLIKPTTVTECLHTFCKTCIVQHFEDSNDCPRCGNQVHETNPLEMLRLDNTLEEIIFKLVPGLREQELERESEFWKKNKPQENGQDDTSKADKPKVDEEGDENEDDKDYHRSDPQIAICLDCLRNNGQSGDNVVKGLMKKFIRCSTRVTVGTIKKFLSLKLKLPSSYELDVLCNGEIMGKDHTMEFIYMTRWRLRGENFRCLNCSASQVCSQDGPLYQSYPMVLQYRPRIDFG
UniProt P12004, whole entry, looked up: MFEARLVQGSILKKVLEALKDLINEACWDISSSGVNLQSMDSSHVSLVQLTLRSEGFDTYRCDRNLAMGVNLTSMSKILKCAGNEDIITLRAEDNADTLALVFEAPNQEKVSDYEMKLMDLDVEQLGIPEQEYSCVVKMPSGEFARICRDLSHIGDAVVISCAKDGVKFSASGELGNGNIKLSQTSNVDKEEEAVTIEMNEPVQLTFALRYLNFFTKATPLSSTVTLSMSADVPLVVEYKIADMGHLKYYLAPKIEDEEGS
UniProt O94913, whole entry, looked up: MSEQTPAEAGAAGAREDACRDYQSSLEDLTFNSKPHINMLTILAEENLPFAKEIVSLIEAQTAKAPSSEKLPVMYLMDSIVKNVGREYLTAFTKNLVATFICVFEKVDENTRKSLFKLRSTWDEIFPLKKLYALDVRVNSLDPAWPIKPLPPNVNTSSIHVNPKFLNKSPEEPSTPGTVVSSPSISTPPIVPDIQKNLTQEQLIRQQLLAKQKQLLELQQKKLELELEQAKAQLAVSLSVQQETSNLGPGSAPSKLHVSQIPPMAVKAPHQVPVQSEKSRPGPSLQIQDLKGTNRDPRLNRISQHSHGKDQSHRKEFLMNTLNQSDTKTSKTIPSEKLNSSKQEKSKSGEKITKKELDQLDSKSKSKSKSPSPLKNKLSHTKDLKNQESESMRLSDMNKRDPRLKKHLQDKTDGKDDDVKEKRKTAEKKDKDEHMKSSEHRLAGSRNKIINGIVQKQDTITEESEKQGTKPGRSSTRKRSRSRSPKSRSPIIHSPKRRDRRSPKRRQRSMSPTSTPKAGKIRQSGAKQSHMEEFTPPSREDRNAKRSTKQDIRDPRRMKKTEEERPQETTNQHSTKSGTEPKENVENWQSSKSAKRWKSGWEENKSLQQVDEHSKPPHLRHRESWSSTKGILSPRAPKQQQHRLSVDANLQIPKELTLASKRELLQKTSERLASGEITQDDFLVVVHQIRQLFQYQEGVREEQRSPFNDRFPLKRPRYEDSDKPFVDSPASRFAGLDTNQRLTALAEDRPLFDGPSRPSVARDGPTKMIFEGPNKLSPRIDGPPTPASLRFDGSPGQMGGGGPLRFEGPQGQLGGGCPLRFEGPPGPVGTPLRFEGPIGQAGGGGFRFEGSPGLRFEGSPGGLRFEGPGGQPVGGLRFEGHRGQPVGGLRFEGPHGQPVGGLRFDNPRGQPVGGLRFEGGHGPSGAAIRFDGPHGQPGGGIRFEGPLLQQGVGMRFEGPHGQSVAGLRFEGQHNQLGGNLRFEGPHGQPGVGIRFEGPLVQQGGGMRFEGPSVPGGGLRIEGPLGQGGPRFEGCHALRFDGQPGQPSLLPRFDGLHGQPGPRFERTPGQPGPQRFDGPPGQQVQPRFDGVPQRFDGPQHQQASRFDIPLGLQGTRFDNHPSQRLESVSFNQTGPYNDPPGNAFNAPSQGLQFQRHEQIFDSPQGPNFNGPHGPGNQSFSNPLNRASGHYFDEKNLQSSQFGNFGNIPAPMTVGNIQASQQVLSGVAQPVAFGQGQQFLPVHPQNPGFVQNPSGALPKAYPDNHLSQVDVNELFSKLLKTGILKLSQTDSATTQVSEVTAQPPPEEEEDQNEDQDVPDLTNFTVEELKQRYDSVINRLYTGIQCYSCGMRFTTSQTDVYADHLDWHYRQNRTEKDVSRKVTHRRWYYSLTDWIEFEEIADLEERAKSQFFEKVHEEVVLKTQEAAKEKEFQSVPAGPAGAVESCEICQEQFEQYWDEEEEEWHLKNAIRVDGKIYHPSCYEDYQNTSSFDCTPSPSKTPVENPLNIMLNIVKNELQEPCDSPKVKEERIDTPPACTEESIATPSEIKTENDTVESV
UniProt P30101, whole entry, looked up: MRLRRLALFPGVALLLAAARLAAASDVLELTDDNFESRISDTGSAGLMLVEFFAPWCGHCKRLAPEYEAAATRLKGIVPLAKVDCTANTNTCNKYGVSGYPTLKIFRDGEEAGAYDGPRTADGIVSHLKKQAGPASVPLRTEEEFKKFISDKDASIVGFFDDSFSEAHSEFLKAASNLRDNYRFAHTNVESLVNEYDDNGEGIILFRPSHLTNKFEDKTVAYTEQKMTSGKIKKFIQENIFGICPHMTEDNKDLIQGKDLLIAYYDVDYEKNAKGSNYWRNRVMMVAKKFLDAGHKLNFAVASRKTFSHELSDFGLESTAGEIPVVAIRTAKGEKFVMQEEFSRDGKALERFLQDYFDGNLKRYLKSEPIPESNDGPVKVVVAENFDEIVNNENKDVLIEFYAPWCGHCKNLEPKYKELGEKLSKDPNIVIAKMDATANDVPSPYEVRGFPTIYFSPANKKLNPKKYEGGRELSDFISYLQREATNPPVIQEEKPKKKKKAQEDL
UniProt Q14554: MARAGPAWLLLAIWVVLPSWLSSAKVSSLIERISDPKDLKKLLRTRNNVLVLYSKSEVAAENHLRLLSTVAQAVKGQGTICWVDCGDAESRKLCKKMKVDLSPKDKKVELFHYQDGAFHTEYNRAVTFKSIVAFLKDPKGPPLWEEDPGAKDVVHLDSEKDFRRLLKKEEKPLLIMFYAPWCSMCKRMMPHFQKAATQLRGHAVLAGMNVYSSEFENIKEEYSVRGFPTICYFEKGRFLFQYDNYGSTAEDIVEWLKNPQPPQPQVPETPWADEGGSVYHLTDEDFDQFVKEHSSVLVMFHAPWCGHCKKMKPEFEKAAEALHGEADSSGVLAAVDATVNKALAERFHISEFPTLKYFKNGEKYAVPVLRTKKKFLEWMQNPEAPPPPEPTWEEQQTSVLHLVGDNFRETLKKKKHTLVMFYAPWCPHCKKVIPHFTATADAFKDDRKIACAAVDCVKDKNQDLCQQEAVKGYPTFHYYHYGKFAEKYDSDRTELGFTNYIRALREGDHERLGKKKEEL
UniProt Q53EL6: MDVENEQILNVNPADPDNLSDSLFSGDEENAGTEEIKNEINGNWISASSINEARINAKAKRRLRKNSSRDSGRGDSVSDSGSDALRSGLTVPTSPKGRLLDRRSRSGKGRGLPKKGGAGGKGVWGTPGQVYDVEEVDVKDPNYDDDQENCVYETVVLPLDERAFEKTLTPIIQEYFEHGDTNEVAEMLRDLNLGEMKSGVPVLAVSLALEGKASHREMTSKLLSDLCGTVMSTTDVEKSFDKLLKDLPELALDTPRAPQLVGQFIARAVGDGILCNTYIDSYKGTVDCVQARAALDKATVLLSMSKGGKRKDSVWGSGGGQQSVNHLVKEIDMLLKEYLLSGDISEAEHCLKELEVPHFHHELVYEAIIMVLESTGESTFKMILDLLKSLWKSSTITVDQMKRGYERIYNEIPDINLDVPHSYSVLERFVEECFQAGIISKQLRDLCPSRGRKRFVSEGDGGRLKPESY

Compound: CC1Cc2ccccc2N1C(=O)C1CCCN(C1)C(=O)CCl (mixture of isomers) [TRIM25 ligand 11 (diastereomer mixture)]
Experiment: probe-labelled cysteine peptide fold change vs DMSO (competition) (log2 fold change); higher = less target engagement (more negative = stronger competition)
Conditions: THP-1, incubation time: 4 h
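Also: competitive chemoproteomic profiling in live THP-1 cells with an iodoacetamide desthiobiotin (IA-DTB) probe, comparing probe-labelled peptide intensities in compound-treated cells against DMSO-treated controls.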

Target	probe-labelled cysteine peptide fold change (10 µM)	probe-labelled cysteine peptide fold change (50 µM)
PDLIM5_Q96HC4_73_GCTGSLNMTLQR (UniProt Q96HC4)	0.00727	0.0182
PDCD11_Q14690_1218_TLLCLSLTGPHK (UniProt Q14690)	-0.113	-0.108
PDLIM1_O00151_289_HPECYVCTDCGTNLK (UniProt O00151)	0.0913	0.0265
PCCA_P05165_398_INGWAVECR (UniProt P05165)	0.178	0.32
PCM1_Q15154_1872_PCYLNILEDEQPLNSAAHK (UniProt Q15154)	0.0621	-0.173
PDE3B_Q13370_1059_IFCQLMHHLTENHK (UniProt Q13370)	-0.105	-0.231
PARP2_Q9UGN5_288_KIEDCIR (UniProt Q9UGN5)	-0.0921	0.0738
PARP9_Q8IXQ6_82_QLCEVLQNK (UniProt Q8IXQ6)	-0.215	-0.188
PDK1_Q15118_240_RLCDLYYINSPELELEELNAK (UniProt Q15118)	0.246	0.316
PBRM1_Q86U86_1233_CAVLSFK (UniProt Q86U86)	0.0824	-0.00691
PAXX_Q9BUH6_180_CPGESLINPGFK (UniProt Q9BUH6)	-0.17	-0.517
PCYOX1L_Q8NBM8_250_LVCSGLLK (UniProt Q8NBM8)	0.118	0.23
PCBP1_Q15365_158_AITIAGVPQSVTECVK (UniProt Q15365)	-0.266	-0.0471
PDCD2L_Q9BRP1_191_LQDAVLGAAHPVPPGLPLFLPYYICVADEDDYRDFVNLDHAHSLLR (UniProt Q9BRP1)	-0.928	0.29
PCGF5_Q86SE9_34_GYLIKPTTVTECLHTFCK (UniProt Q86SE9)	-0.053	-0.054
PDLIM4_P50479_72_GCHDHLTLSVSRPEGR (UniProt P50479)	0.361	0.0886
PDLIM1_O00151_286_HRHPECYVCTDCGTNLK (UniProt O00151)	0.117	0.192
PCID2_Q5JVF3_152_VCASDTR (UniProt Q5JVF3)	0.185	0.222
PCNA_P12004_162_DLSHIGDAVVISCAK (UniProt P12004)	-0.00138	0.0679
PCYT2_Q99447_306_VDLVCHGK (UniProt Q99447)	0.116	0.229
PDIA6_Q15084_297_RTCEEHQLCVVAVLPHILDTGAAGR (UniProt Q15084)	-0.196	-0.0884

Target	probe-labelled cysteine peptide fold change (10 µM)	probe-labelled cysteine peptide fold change (50 µM)
PCYOX1_Q9UHG3_445_CPSIILHDR (UniProt Q9UHG3)	0.00844	0.141
PDS5A_Q29RF7_742_QAVHCIHAIFTNK (UniProt Q29RF7)	0.0829	0.122
PCNA_P12004_135_LMDLDVEQLGIPEQEYSCVVK (UniProt P12004)	-0.113	0.0916
PCNT_O95613_357_DLCLENLR (UniProt O95613)	0.0333	0.195
PCF11_O94913_102_NLVATFICVFEK (UniProt O94913)	0.0152	0.0398
PBX1_P40424_172_YEQACNEFTTHVMNLLR (UniProt P40424)	-0.0704	-0.00549
PCM1_Q15154_1616_EHMDEVCSSQLLTSVRR (UniProt Q15154)	-0.367	-0.438
PAXIP1_Q6ZW49_997_AIVECAGGK (UniProt Q6ZW49)	-0.0141	-0.109
PDPR_Q8NCN5_653_AVDVLSELSYAPMTPDHFPSLFCK (UniProt Q8NCN5)	0.0564	-0.00485
PDHA1_P08559_181_NFYGGNGIVGAQVPLGAGIALACK (UniProt P08559)	0.183	0.26
PDLIM7_Q9NR12_370_MTWHVHCFTCAACK (UniProt Q9NR12)	-0.0568	0.119
PDHA1_P08559_261_RGDFIPGLRVDGMDILCVR (UniProt P08559)	-0.514	-0.188
PDIA6_Q15084_297_TCEEHQLCVVAVLPHILDTGAAGR (UniProt Q15084)	-0.0708	-0.00495
PBRM1_Q86U86_1228_EVFLSNLEETCPMTCILGK (UniProt Q86U86)	-0.0974	0.115
PCK2_Q16822_151_AVDERFPGCMQGR (UniProt Q16822)	-0.322	-0.143
PDIA3_P30101_85+92_VDCTANTNTCNK (UniProt P30101)	0.114	0.0316
PDHA1_P08559_222_LPCIFICENNR (UniProt P08559)	0.147	0.337
PDIA5_Q14554_305_EHSSVLVMFHAPWCGHCK (UniProt Q14554)	0.118	-0.222
PDIA6_Q15084_55_EVIQSDSLWLVEFYAPWCGHCQR (UniProt Q15084)	-0.19	-0.166
PCM1_Q15154_876_SDGSENLCTPQQSR (UniProt Q15154)	-0.203	-0.397
PCBP3_P57721_141_LVVPASQCGSLIGK (UniProt P57721)	-0.0567	-0.121

Target	probe-labelled cysteine peptide fold change (10 µM)	probe-labelled cysteine peptide fold change (50 µM)
PDLIM7_Q9NR12_388_AFYMEEGVPYCERDYEK (UniProt Q9NR12)	-0.418	-0.194
PDCD11_Q14690_535_LPVITCYADAK (UniProt Q14690)	0.247	0.297
PCF11_O94913_1346_LYTGIQCYSCGMR (UniProt O94913)	0.0928	0.0469
PDLIM1_O00151_45_AALANLCIGDVITAIDGENTSNMTHLEAQNR (UniProt O00151)	-0.107	-0.207
PDCD4_Q53EL6_288_GTVDCVQAR (UniProt Q53EL6)	0.164	0.233
PDCD2L_Q9BRP1_100_SQCLQVPER (UniProt Q9BRP1)	0.0827	-0.012
PDLIM2_Q96JY6_289_CSTSIANQAVR (UniProt Q96JY6)	0.0403	0.178
PAXIP1_Q6ZW49_136_CTHLIVPEPK (UniProt Q6ZW49)	0.233	0.288
PCYT1A_P49585_139_YDAVQHCR (UniProt P49585)	0.00461	0.0443
PDE12_Q6L8Q7_268_ELESVCVVEAGPGTCTFDHR (UniProt Q6L8Q7)	0.0977	-0.0954
PCNT_O95613_2278_ADTSLPQTQGPGLLCSPGVSAAALALQWAESPPADDHHVQR (UniProt O95613)	-0.206	0.103
PAXX_Q9BUH6_24_FVCYCEGEESGEGDR (UniProt Q9BUH6)	0.288	0.0211
PDS5B_Q9NTI5_676_VLSFTHPISFHSAETFESLLACLK (UniProt Q9NTI5)	-0.00482	-0.23
PARS2_Q7L3T8_68_SDDLTCK (UniProt Q7L3T8)	-0.167	-0.0773
PDXDC1_Q6P996_481_GEDVDQLVACIESK (UniProt Q6P996)	-0.00556	-0.121
PAXIP1_Q6ZW49_671_CVTAHWLNTVLK (UniProt Q6ZW49)	-0.0141	0.132
PDHB_P11177_161+169_GPNGASAGVAAQHSQCFAAWYGHCPGLK (UniProt P11177)	0.0122	-0.0132
PDLIM7_Q9NR12_364_MTWHVHCFTCAACK (UniProt Q9NR12)	0.0335	-0.00467
PDLIM1_O00151_283+286+289_HRHPECYVCTDCGTNLK (UniProt O00151)	-0.034	0.00381
PDIA6_Q15084_190_NVLDSEDVWMVEFYAPWCGHCK (UniProt Q15084)	-0.195	-0.516
PCK2_Q16822_417_PWKPGDKEPCAHPNSR (UniProt Q16822)	-0.0284	-0.0772

Reprinted from above for reference:
Target	probe-labelled cysteine peptide fold change (10 µM)	probe-labelled cysteine peptide fold change (50 µM)
PDCD4_Q53EL6_288_GTVDCVQAR (UniProt Q53EL6)	0.164	0.233
PDCD2L_Q9BRP1_100_SQCLQVPER (UniProt Q9BRP1)	0.0827	-0.012
PDLIM2_Q96JY6_289_CSTSIANQAVR (UniProt Q96JY6)	0.0403	0.178
PAXIP1_Q6ZW49_136_CTHLIVPEPK (UniProt Q6ZW49)	0.233	0.288
PCYT1A_P49585_139_YDAVQHCR (UniProt P49585)	0.00461	0.0443
PDE12_Q6L8Q7_268_ELESVCVVEAGPGTCTFDHR (UniProt Q6L8Q7)	0.0977	-0.0954

Going on with the list:

Target	probe-labelled cysteine peptide fold change (10 µM)	probe-labelled cysteine peptide fold change (50 µM)
PBK_Q96KB5_70_KINPICNDHYR (UniProt Q96KB5)	-0.037	-0.0406
PDS5B_Q9NTI5_573_QLEVLVSPTCSCK (UniProt Q9NTI5)	-0.0248	0.0151
PDCD11_Q14690_1154_QYQAGQTVTCFLK (UniProt Q14690)	-0.0831	0.0115
PCK2_Q16822_417_EPCAHPNSR (UniProt Q16822)	0.218	0.0236
PCCA_P05165_155_CLAAEDVVFIGPDTHAIQAMGDKIESK (UniProt P05165)	-0.0809	0.00753
PDE4DIP_Q5VU43_375_QCVQFVEAAAHESEQQK (UniProt Q5VU43)	-0.0595	-0.197
PCYT2_Q99447_110_YNCDFCVHGNDITLTVDGR (UniProt Q99447)	-0.0584	0.192
PDIA4_P13667_94_DTVLLEFYAPWCGHCK (UniProt P13667)	0.0567	-0.17
PDIA5_Q14554_465_NQDLCQQEAVK (UniProt Q14554)	-0.0391	-0.0827
PCBP2_Q15366_158_AITIAGIPQSIIECVK (UniProt Q15366)	-0.0406	0.0228
PDIA3_P30101_244_FIQENIFGICPHMTEDNK (UniProt P30101)	-0.024	-0.2
PDIA3_P30101_85_VDCTANTNTCNK (UniProt P30101)	0.0644	0.258
PDIA4_P13667_91_DTVLLEFYAPWCGHCK (UniProt P13667)	0.0339	-0.201
PDS5A_Q29RF7_430_YCLHGEAGK (UniProt Q29RF7)	0.0368	0.0881
PDS5B_Q9NTI5_943_LPLEYMAICALCAK (UniProt Q9NTI5)	0.336	0.229
PDLIM7_Q9NR12_311_YLVALGHAYHPEEFVCSQCGK (UniProt Q9NR12)	-0.0266	0.12
PARP4_Q9UKK3_12_VMGIFANCIFCLK (UniProt Q9UKK3)	0.0309	0.242
PCGF5_Q86SE9_53_TCIVQHFEDSNDCPR (UniProt Q86SE9)	0.408	-0.0388
PDLIM7_Q9NR12_388_AFYMEEGVPYCER (UniProt Q9NR12)	0.0115	0.0577
PDLIM1_O00151_263_CGTGIVGVFVK (UniProt O00151)	-0.15	-0.156
PDCD2L_Q9BRP1_49_LGGIPDALPTVAAPRPVCQR (UniProt Q9BRP1)	-0.312	-0.529
